Experimental data: PubChem BioAssay AID743121 (NCATS, 2013)
Assay: 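Partners whose loss is lethal together with topoisomerase I blockade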 (primary screen). Cells: MDA-MB-231 cells, a human breast cancer line. Reagents: single siRNA against human genes, 20 nM siRNA (0.8 pmol per well). Timing: 120 h (drug added 48 h after transfection, read 72 h later). Conditions: camptothecin 20 nM (about EC30) for 72 h; vehicle 0.1% DMSO in parallel plates. Measurement: 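Cell viability by ATP luminescence (CellTiter-Glo) as % of non-targeting siRNA wells, and the log2 ratio of viability without drug over viability with camptothecin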. Reading the numbers: log2 vehicle/camptothecin viability: higher = stronger sensitisation to camptothecin; viability with camptothecin: higher = more viable cells. Units: viability with camptothecin in % of control. Hit rule: 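Each gene scored by redundant siRNA activity (RSA) over its individual siRNA ratios; a gene is called active at p < 0.001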.
Shown is one part, drawn at random, of about 26,000 reagents tested. Of all reagents, 167 (0.63%) are marked active. 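Calls are per gene from RSA p-values that are not deposited; an individual active-marked siRNA can sensitise only weakly.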 Further read-outs or replicates are left out here.

For UCK2 [SID164393489], what does the deposit list?
log2 vehicle/camptothecin viability: 0.131; viability with camptothecin: 48.9; call: inactive

How did the screen score UCK2 [SID164393491]?
log2 vehicle/camptothecin viability: -0.215; viability with camptothecin: 85.5; call: inactive

What did the screen give for UCK2 [SID164393492]?
log2 vehicle/camptothecin viability: -0.68; viability with camptothecin: 106; call: inactive

How did the screen score UCK2 [SID164393495]?
log2 vehicle/camptothecin viability: 0.128; viability with camptothecin: 94; call: inactive

Which result is listed for CCNA2 [SID164356888]?
log2 vehicle/camptothecin viability: 0.0596; viability with camptothecin: 57.5; call: inactive

How did the screen score CCNA2 [SID164356891]?
log2 vehicle/camptothecin viability: -0.161; viability with camptothecin: 49; call: inactive

For CCNA2 [SID164356894], how do the results read?
log2 vehicle/camptothecin viability: -0.338; viability with camptothecin: 52; call: inactive

With CCNA2 [SID164356895], what does the deposit list?
log2 vehicle/camptothecin viability: 0.031; viability with camptothecin: 90; call: inactive

What is on record for TNRC6C [SID164495784]?
log2 vehicle/camptothecin viability: -0.18; viability with camptothecin: 115; call: inactive

For TNRC6C [SID164495787], what was measured?
log2 vehicle/camptothecin viability: -0.0229; viability with camptothecin: 46.4; call: inactive

For TNRC6C [SID164495789], what was measured?
log2 vehicle/camptothecin viability: -0.0399; viability with camptothecin: 43.5; call: inactive

What did the screen give for TNRC6C [SID164495791]?
log2 vehicle/camptothecin viability: -0.179; viability with camptothecin: 76.4; call: inactive

Which result is listed for COL3A1 [SID164359082]?
log2 vehicle/camptothecin viability: 0.565; viability with camptothecin: 26.5; call: inactive

How did the screen score COL3A1 [SID164359084]?
log2 vehicle/camptothecin viability: 0.975; viability with camptothecin: 15.7; call: inactive

For COL3A1 [SID164359085], how do the results read?
log2 vehicle/camptothecin viability: -0.177; viability with camptothecin: 79.6; call: inactive

For RBM24 [SID164592817], what was measured?
log2 vehicle/camptothecin viability: -0.309; viability with camptothecin: 65.9; call: inactive

What did the screen give for RBM24 [SID164592818]?
log2 vehicle/camptothecin viability: -0.285; viability with camptothecin: 59.4; call: inactive

With RBM24 [SID164592821], what does the deposit list?
log2 vehicle/camptothecin viability: -0.13; viability with camptothecin: 97.1; call: inactive

For GPLD1 [SID164367196], what does the deposit list?
log2 vehicle/camptothecin viability: -0.231; viability with camptothecin: 90.4; call: inactive

What is on record for GPLD1 [SID164367198]?
log2 vehicle/camptothecin viability: 0.347; viability with camptothecin: 63.3; call: inactive

For GPLD1 [SID164367201], how do the results read?
log2 vehicle/camptothecin viability: 0.189; viability with camptothecin: 63.5; call: inactive

For GPLD1 [SID164367204], how do the results read?
log2 vehicle/camptothecin viability: -0.536; viability with camptothecin: 75.1; call: inactive

How did the screen score TMEM11 [SID164400158]?
log2 vehicle/camptothecin viability: -0.124; viability with camptothecin: 135; call: inactive

For TMEM11 [SID164400160], what was measured?
log2 vehicle/camptothecin viability: -0.529; viability with camptothecin: 72.7; call: inactive

With TMEM11 [SID164400161], how do the results read?
log2 vehicle/camptothecin viability: 0.116; viability with camptothecin: 22.8; call: inactive

What did the screen give for TMEM11 [SID164400164]?
log2 vehicle/camptothecin viability: 0.114; viability with camptothecin: 69.7; call: inactive

With RGS7 [SID164385297], what was measured?
log2 vehicle/camptothecin viability: -0.0492; viability with camptothecin: 43.7; call: inactive

For RGS7 [SID164385298], what does the deposit list?
log2 vehicle/camptothecin viability: -0.0646; viability with camptothecin: 21.3; call: inactive

For RGS7 [SID164385301], what does the deposit list?
log2 vehicle/camptothecin viability: -0.517; viability with camptothecin: 119; call: inactive

For RGS7 [SID164385302], how do the results read?
log2 vehicle/camptothecin viability: -0.417; viability with camptothecin: 104; call: inactive

What did the screen give for GADD45B [SID164376690]?
log2 vehicle/camptothecin viability: -0.126; viability with camptothecin: 52.8; call: inactive

What did the screen give for GADD45B [SID164376691]?
log2 vehicle/camptothecin viability: -0.0743; viability with camptothecin: 37.5; call: inactive

What did the screen give for GADD45B [SID164376692]?
log2 vehicle/camptothecin viability: 0.284; viability with camptothecin: 70; call: inactive

What did the screen give for GADD45B [SID164376693]?
log2 vehicle/camptothecin viability: 0.174; viability with camptothecin: 68.3; call: inactive

With PLCG2 [SID164381110], what was measured?
log2 vehicle/camptothecin viability: 0.147; viability with camptothecin: 96.8; call: inactive

With PLCG2 [SID164381111], how do the results read?
log2 vehicle/camptothecin viability: -0.338; viability with camptothecin: 110; call: inactive

What did the screen give for PLCG2 [SID164381112]?
log2 vehicle/camptothecin viability: -0.0932; viability with camptothecin: 89.5; call: inactive

How did the screen score PLCG2 [SID164381113]?
log2 vehicle/camptothecin viability: -0.44; viability with camptothecin: 95.9; call: inactive

4 entries from above, ordered by “viability with camptothecin”, highest first:
RGS7 [SID164385301] | log2 vehicle/camptothecin viability = -0.517; viability with camptothecin = 119; call = inactive
TMEM11 [SID164400164] | log2 vehicle/camptothecin viability = 0.114; viability with camptothecin = 69.7; call = inactive
RGS7 [SID164385297] | log2 vehicle/camptothecin viability = -0.0492; viability with camptothecin = 43.7; call = inactive
RGS7 [SID164385298] | log2 vehicle/camptothecin viability = -0.0646; viability with camptothecin = 21.3; call = inactive
